Measurements taken from US20260198498A1, “FUNGICIDAL COMPOSITIONS” (SYNGENTA CROP PROTECTION AG, priority 2022, published 2026).
Some entries share one result that the patent states for a list of compounds.

How the values were obtained:
[1] = tested on: Cercospora kikuchii; assay: Example B3: Cercospora kikuchii (Leaf Blight of Soybean), liquid culture; assay type: cell-based; settings: 200 ppm, photometrically after 3 to 4 days at 620 nm
[2] = tested on: Sclerotinia sclerotiorum; assay: Example B20: Sclerotinia sclerotiorum/Liquid Culture (Cottony Rot); assay type: cell-based; settings: 20 ppm; liquid culture, photometrically 3-4 days after application
[3] = tested on: Blumeria graminis f. sp. tritici (Erysiphe graminis f. sp. tritici); assay: Example B7: Blumeria graminis f. sp. tritici/Wheat/Leaf Disc Preventative (Powdery Mildew on Wheat); assay type: in vivo; settings: 200 ppm, wheat leaf segments, inoculated 1 day after application
[4] = tested on: Mycosphaerella arachidis (Cercospora arachidicola); assay: Example B13: Mycosphaerella arachidis (Cercospora arachidicola)/Liquid Culture (Early Leaf Spot); assay type: cell-based; settings: 20 ppm; liquid culture, photometrically 4 to 5 days after application
Procedure: Example B13: Mycosphaerella arachidis (Cercospora arachidicola)/Liquid Culture (Early Leaf Spot)
(§1) Conidia of the fungus from cryogenic storage are directly mixed into nutrient broth (PDB potato dextrose broth). After placing a (DMSO) solution of test compound into a microtiter plate (96-well format), the nutrient broth containing the fungal spores is added. The test plates are incubated at 24° C. and the inhibition of growth is determined photometrically 4 to 5 days after application.

[5] = tested on: Botryotinia fuckeliana (Botrytis cinerea); assay: Example B2: Botryotinia fuckeliana (Botrytis cinerea)/Liquid Culture (Gray Mould); assay type: cell-based; settings: 20 ppm; liquid culture, growth inhibition photometrically 3 to 4 days after application
Procedure: Example B2: Botryotinia fuceliana (Botrytis cinerea)/Liquid Culture (Gray Mould)
as §1, with “(Vogels” for “(PDB potato dextrose”, “photometrically 3 to” for “photometrically”, “4” for “4 to 5”

[6] = tested on: Glomerella lagenarium (Colletotrichum lagenarium); assay: Example B5: Glomerella lagenarium (Colletotrichum lagenarium)/Liquid Culture (Anthracnose); assay type: cell-based; settings: 20 ppm; liquid culture, photometrically 3 to 4 days after application
Procedure: Example B5: Glomerella lagenarium (Colletotrichum lagenarium)/Liquid Culture (Anthracnose)
as §1, with “measured” for “determined”, “photometrically 3 to” for “photometrically”, “4” for “4 to 5”

[7] = tested on: Mycosphaerella graminicola (Septoria tritici); assay: Example B21: Mycosphaerella graminicola (Septoria tritici)/Liquid Culture (Septoria Blotch); assay type: cell-based; settings: 20 ppm; liquid culture, photometrically 4-5 days after application
Procedure: Example B21: Mycosphaerella graminicola (Septoria tritici)/Liquid Culture (Septoria Blotch)
as §1, with “4-5” for “4 to 5”

Cn1cc(C2CN(C(=O)c3cc(-c4ccc(F)cc4F)on3)Cc3ccccc32)cn1 (stereo not shown) [X.20, [5-(2,4-difluorophenyl)isoxazol-3-yl]-[4-(1-methylpyrazol-4-yl)-3,4-dihydro-1H-isoquinolin-2-yl]methanone]
control of Cercospora kikuchii [1]: at least 80%

Cn1cc(C2(C)CN(C(=O)c3cc(-c4ccc(F)cc4F)on3)Cc3ccccc32)cn1 (stereo not shown) [X.14, [5-(2,4-difluorophenyl)isoxazol-3-yl]-[4-methyl-4-(1-methylpyrazol-4-yl)-1,3-dihydroisoquinolin-2-yl]methanone]
control of Cercospora kikuchii [1]: at least 80%

Cc1c(C2CN(C(=O)c3cc(-c4ccc(F)cc4F)on3)Cc3ccccc32)cnn1C (stereo not shown) [X.16, [5-(2,4-difluorophenyl)isoxazol-3-yl]-[4-(1,5-dimethylpyrazol-4-yl)-3,4-dihydro-1H-isoquinolin-2-yl]methanone]
control of Cercospora kikuchii [1]: at least 80%

Cc1c([C@H]2CN(C(=O)c3cc(-c4ncc(F)cc4F)on3)[C@@H](C)c3ccccc32)cnn1C (racemic) [X.21, [5-(3,5-difluoro-2-pyridyl)isoxazol-3-yl]-[rac-(1S,4S)-4-(1,5-dimethylpyrazol-4-yl)-1-methyl-3,4-dihydro-1H-isoquinolin-2-yl]methanone]
control of Sclerotinia sclerotiorum [2]: at least 80%
control of Blumeria graminis f. sp. tritici [3]: at least 80%

Cn1ncc(C2CN(C(=O)c3cc(-c4ccc(F)cc4F)on3)Cc3ccccc32)c1Cl (stereo not shown) [X.11, [4-(5-chloro-1-methyl-pyrazol-4-yl)-3,4-dihydro-1H-isoquinolin-2-yl]-[5-(2,4-difluorophenyl)isoxazol-3-yl]methanone]
control of Cercospora kikuchii [1]: at least 80%

[5-(2,6-difluoro-3-pyridyl)-1,3,4-thiadiazol-2-yl]-[4-(1,5-dimethylpyrazol-4-yl)-3,4-dihydro-1H-isoquinolin-2-yl]methanone [X.29]
control of Mycosphaerella arachidis [4]: at least 80%
control of Botryotinia fuckeliana [5]: at least 80%
control of Glomerella lagenarium [6]: at least 80%
control of Mycosphaerella graminicola [7]: at least 80%
